The target of this assay is T1, HIS-tagged extracellular domain of canine IL-4 receptor alpha chain (canine).
T1 sequence: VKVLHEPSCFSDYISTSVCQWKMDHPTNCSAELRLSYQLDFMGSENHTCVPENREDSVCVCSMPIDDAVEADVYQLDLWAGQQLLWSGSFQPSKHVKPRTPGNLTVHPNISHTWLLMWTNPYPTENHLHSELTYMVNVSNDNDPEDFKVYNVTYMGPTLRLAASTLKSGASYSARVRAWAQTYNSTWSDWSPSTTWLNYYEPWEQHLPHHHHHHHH
Description: ELISA on plate-coated HIS-tagged canine IL-4Rα ECD, detection with HRP goat anti-mouse IgG.

No constants are given. Whether binding was seen depends on the method and setting. Some results given as binding are weak or reduced against the parent protein; the word gives no strength. Sequences can lack the tags named with a protein.

For 1 molecule, binding results are on record in US20180346580A1 (INTERVET, published 2018).

B1: 1A9 (antibody, V domains shown)
VH: QVPLQQSGPELVKPGASVKISCKASGYAFSSSWMNWVKQRPGKGLEWIGRIYPGDGDTKYNGKFKGKATLTADKSSSTAYMQLSSLTSEDSAVYFCARDDYDEASWGQGTLVTVSA
VL: DIVMTQSQKFMSTSVGDRVSITCKASQNVRSAVAWYQQKPGQSPKSLIYLASNRHTGVPDRFTGSGSGTDFTLTISNVQSEDLADYFCLQHWNYPFTFGSGTKLEIK
notes: member of the group m16; also called mAb 1A9; mouse anti-canine IL-4Rα monoclonal antibody 1A9
With B1, the binding entry is reported as “binds”.
